Our source for the binding values is PMC12215968.

The chains behind the UniProt entries cited, without tags or fusion partners.
UniProt P60896: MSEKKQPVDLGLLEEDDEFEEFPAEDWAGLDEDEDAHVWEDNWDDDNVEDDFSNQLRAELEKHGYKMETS

The test has as its target Rpn7 (human) (UniProt Q15008). Nature of the test: cross-linking; human 26S proteasomes affinity-purified from native lysate of 293 HBTH-Rpn1 cells on streptavidin-sepharose; cross-linked on-bead with […] TSTO in PBS pH 7.5, 1 h, room temperature; cross-links identified by LC-MSn.

These are yes or no findings as the source states them, for the method shown. In cells and extracts the contact can be indirect. Some entries that bind do so weakly or less than the wild type.

As to Dss1 (from UniProt P60896 1-70), the binding result is reported as “binds”.
